Laboratory results: the supplement of paper PMC4604168 (melanoma cell lines)
The list shows a part of the results. Repeats are few or missing, and single values can be far off.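 Cells were imaged in 1,536-well plates, and nuclei stained with an antibody against cleaved PARP were counted against all DNA-stained nuclei to give the apoptosis fraction. Screening doses were chosen to leave most cells alive, and resting and induced cleaved-PARP levels differ strongly between cell lines.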

The compounds below were run on RVH-421 (assay: cleaved PARP positive nuclei fraction relative to DMSO control; melanoma cells; higher = more apoptosis). Conditions: library dose: low library concentration; 72 h.

| SMILES | cleaved PARP positive nuclei fraction |
| --- | --- |
| O=C(Nc1cc(C(F)(F)F)cc(C(F)(F)F)c1)c1cc(Cl)ccc1O + Cn1c(Nc2ccc(C(F)(F)F)cc2)nc2cc(Oc3ccnc(-c4ncc(C(F)(F)F)[nH]4)c3)ccc21 [CHIR265] (first compound 0.016 µM, partner dose 0.08 µM) | 360% |
| O=c1[nH]nc(Sc2ncc([N+](=O)[O-])s2)n1-c1ccc2c(c1)OCCO2 + OCc1c[nH]c2ccccc12 [Indole-3-carbinol] (first compound 0.2 µM, partner dose 0.8 µM) | 77.9% |
| O=C(/C=C/c1cccnc1)NCCCCC1CCN(C(=O)c2ccccc2)CC1 + CO[C@H]1C[C@@H]2CC[C@@H](C)[C@@](O)(O2)C(=O)C(=O)N2CCCC[C@H]2C(=O)O[C@H]([C@H](C)C[C@@H]2CC[C@@H](OCCO)[C@H](OC)C2)CC(=O)[C@H](C)/C=C(\C)[C@@H](O)[C@@H](OC)C(=O)[C@H](C)C[C@H](C)/C=C/C=C/C=C/1C [everolimus] (first compound 0.01 µM, partner dose 0.02 µM) | 109% |
| O=c1[nH]nc(Sc2ncc([N+](=O)[O-])s2)n1-c1ccc2c(c1)OCCO2 + CS(=O)(=O)CCNCc1ccc(-c2ccc3ncnc(Nc4ccc(OCc5cccc(F)c5)c(Cl)c4)c3c2)o1 [lapatinib] (first compound 0.2 µM, partner dose 0.8 µM) | 74.9% |
| COc1cc([C@@H]2c3cc4c(cc3[C@@H](O[C@@H]3O[C@@H]5CO[C@@H](C)O[C@H]5[C@H](O)[C@H]3O)[C@H]3COC(=O)[C@H]23)OCO4)cc(OC)c1O [etoposide] + CO[C@H]1C[C@@H]2CC[C@@H](C)[C@@](O)(O2)C(=O)C(=O)N2CCCC[C@H]2C(=O)O[C@H]([C@H](C)C[C@@H]2CC[C@@H](OCCO)[C@H](OC)C2)CC(=O)[C@H](C)/C=C(\C)[C@@H](O)[C@@H](OC)C(=O)[C@H](C)C[C@H](C)/C=C/C=C/C=C/1C [everolimus] (first compound 0.02 µM, partner dose 0.02 µM) | 171% |
| Cc1cn(-c2cc(NC(=O)c3ccc(C)c(Nc4nccc(-c5cccnc5)n4)c3)cc(C(F)(F)F)c2)cn1 [nilotinib] + Nc1cccc2c1CN(C1CCC(=O)NC1=O)C2=O [lenalidomide] (first compound 0.2 µM, partner dose 1 µM) | 29.9% |
| Cc1ccc(Nc2nccc(N(C)c3ccc4c(C)n(C)nc4c3)n2)cc1S(N)(=O)=O [Pazopanib] + CNC(=O)c1cc(Oc2ccc(NC(=O)Nc3ccc(Cl)c(C(F)(F)F)c3)cc2)ccn1 [sorafenib] (first compound 0.4 µM, partner dose 0.4 µM) | 78.8% |
| O=c1[nH]nc(Sc2ncc([N+](=O)[O-])s2)n1-c1ccc2c(c1)OCCO2 + CS(=O)(=O)c1ccc(C(=O)Nc2ccc(Cl)c(-c3ccccn3)c2)c(Cl)c1 [vismodegib] (first compound 0.2 µM, partner dose 1 µM) | 292% |

Reformatted with tabs: entries from further up
SMILES	cleaved PARP positive nuclei fraction
O=c1[nH]nc(Sc2ncc([N+](=O)[O-])s2)n1-c1ccc2c(c1)OCCO2 + CS(=O)(=O)CCNCc1ccc(-c2ccc3ncnc(Nc4ccc(OCc5cccc(F)c5)c(Cl)c4)c3c2)o1 [lapatinib] (first compound 0.2 µM, partner dose 0.8 µM)	74.9%
COc1cc([C@@H]2c3cc4c(cc3[C@@H](O[C@@H]3O[C@@H]5CO[C@@H](C)O[C@H]5[C@H](O)[C@H]3O)[C@H]3COC(=O)[C@H]23)OCO4)cc(OC)c1O [etoposide] + CO[C@H]1C[C@@H]2CC[C@@H](C)[C@@](O)(O2)C(=O)C(=O)N2CCCC[C@H]2C(=O)O[C@H]([C@H](C)C[C@@H]2CC[C@@H](OCCO)[C@H](OC)C2)CC(=O)[C@H](C)/C=C(\C)[C@@H](O)[C@@H](OC)C(=O)[C@H](C)C[C@H](C)/C=C/C=C/C=C/1C [everolimus] (first compound 0.02 µM, partner dose 0.02 µM)	171%
